This assay addresses T1, MBP–ARP (Arabidopsis APE-redox protein tagged with maltose-binding protein) (Arabidopsis thaliana) (UniProt P45951).
T1 sequence: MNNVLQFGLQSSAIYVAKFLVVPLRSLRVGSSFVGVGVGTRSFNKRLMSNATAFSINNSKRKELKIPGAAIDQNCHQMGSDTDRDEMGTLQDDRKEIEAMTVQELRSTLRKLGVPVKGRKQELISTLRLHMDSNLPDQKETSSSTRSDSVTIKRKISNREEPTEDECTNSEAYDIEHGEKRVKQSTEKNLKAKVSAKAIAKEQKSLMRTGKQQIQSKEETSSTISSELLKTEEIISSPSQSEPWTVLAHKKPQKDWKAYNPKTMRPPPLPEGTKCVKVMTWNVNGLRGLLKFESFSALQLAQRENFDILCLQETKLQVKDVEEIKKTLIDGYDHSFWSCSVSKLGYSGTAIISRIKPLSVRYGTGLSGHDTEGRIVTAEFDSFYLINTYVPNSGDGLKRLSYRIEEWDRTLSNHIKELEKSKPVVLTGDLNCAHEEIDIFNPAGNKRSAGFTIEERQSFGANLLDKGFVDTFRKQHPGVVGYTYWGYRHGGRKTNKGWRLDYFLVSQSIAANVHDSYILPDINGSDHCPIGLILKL
In words: affinity purification with mass spectrometry; MBP–ARP as bait, proteins from Arabidopsis seedlings; MBP as negative control; two biological replicates; only the target purified.

By UniProt entry, the sequences of proteins in these tests, tags left out.
UniProt Q9SZI2: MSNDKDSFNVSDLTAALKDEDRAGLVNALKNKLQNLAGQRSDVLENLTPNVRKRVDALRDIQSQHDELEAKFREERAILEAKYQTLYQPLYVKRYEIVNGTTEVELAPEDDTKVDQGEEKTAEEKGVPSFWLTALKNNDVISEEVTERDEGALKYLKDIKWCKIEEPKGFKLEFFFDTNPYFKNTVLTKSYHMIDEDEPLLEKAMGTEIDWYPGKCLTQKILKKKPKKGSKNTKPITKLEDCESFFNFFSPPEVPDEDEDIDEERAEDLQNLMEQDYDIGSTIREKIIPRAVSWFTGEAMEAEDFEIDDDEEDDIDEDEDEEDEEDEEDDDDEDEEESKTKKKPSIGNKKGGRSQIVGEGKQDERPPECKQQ

No constants are given. Whether binding was seen depends on the method and setting. Binding seen in cells or lysates may run through a third protein. These calls come from enrichment with a bait or labelling near it, and not all partners need be listed. Tags and fused reporters may be left off the sequences shown.

With “NAP1;1 (endogenous, Arabidopsis seedlings) (from UniProt Q9SZI2 1-372)”, the binding result is recorded as “binds”.

B1: CHR24 (endogenous, Arabidopsis seedlings) (enzyme, UniProt Q8W103 1-1090)
chain: MAENTASHRRKPRSLNDRHYSILQDLSAPPRQPPSSSHGEDEETKKSMIKLAGRRRLCKALPKEDEADGYDDPDLVDFYSPVKGETSLDSAGIGNKFTSWDESKEANTELAGEPNFSIITDFCSPSPQLKQKEEMQGDGGRNEIMGILDDLTSKLGTMSIQKKKDSQSNDFDACGVKSQVDKFDFEDAKSSFSLLSDLSKSSPDVVTTYNAGVNSIKDKQGKSGFAIREEQTSKEFSREWEERISNVGKQNSYSGRHFDDNSEDNRQGYNLDRGKSQCKEVDQSMKTTRHIEVSEKIRTVGRSNAAKLRDLDEDDDDDDCLILSGKKAAEMKINKPARSYNAKRHGYDERSLEDEGSITLTGLNLSYTLPGKIATMLYPHQREGLNWLWSLHTQGKGGILGDDMGLGKTMQICSFLAGLFHSKLIKRALVVAPKTLLPHWMKELATVGLSQMTREYYGTSTKAREYDLHHILQGKGILLTTYDIVRNNTKALQGDDHYTDEDDEDGNKWDYMILDEGHLIKNPNTQRAKSLLEIPSSHRIIISGTPIQNNLKELWALFNFSCPGLLGDKNWFKQNYEHYILRGTDKNATDREQRIGSTVAKNLREHIQPFFLRRLKSEVFGDDGATSKLSKKDEIVVWLRLTACQRQLYEAFLNSEIVLSAFDGSPLAALTILKKICDHPLLLTKRAAEDVLEGMDSTLTQEEAGVAERLAMHIADNVDTDDFQTKNDSISCKLSFIMSLLENLIPEGHRVLIFSQTRKMLNLIQDSLTSNGYSFLRIDGTTKAPDRLKTVEEFQEGHVAPIFLLTSQVGGLGLTLTKADRVIVVDPAWNPSTDNQSVDRAYRIGQTKDVIVYRLMTSATVEEKIYRKQVYKGGLFKTATEHKEQIRYFSQQDLRELFSLPKGGFDVSPTQQQLYEEHYNQIKLDEKLESHVKFLETLGIAGVSHHSLLFSKTAPIQAIQKDEEEQIRRETALLLGRASASISQDTVINGADYAFKPKDVNLDKRINISPVDDKELSESVIKARLNRLTMLLQNKGTVSRLPDGGAKIQKQIAELTRELKDMKAAERINMPQVIDLEEDISRKMQKGLNL
Consider B1, for which the binding result is “binds”.

Values taken from publication PMC11132878.
